Measurements taken from article PMC6544635.

Chains of the proteins cited; added tags and fusions are not shown. Chains listed by the source or under a name are the forms on record and can include a tag or linker.
MdRAV1-His (Malus domestica), one chain, as listed by the source: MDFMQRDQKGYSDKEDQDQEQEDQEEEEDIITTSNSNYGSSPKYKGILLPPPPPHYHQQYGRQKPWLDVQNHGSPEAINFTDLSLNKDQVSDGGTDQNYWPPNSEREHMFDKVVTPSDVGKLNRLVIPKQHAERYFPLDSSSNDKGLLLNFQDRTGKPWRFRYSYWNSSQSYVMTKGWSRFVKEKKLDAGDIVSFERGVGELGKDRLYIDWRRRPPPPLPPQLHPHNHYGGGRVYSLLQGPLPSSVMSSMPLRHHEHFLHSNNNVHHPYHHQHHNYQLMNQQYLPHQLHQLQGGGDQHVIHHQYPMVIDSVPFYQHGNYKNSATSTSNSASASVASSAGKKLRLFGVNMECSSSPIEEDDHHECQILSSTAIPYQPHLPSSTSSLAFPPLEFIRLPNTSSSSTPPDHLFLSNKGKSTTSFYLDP

System: MdRAV1-His (Malus domestica)
Assay: EMSA
Settings: EMSA as described by Xie et al. (ref 61); pH and temperature not given; recombinant protein; protein details: His (pET-32a(+) vector); label: biotin

Sequence | binding result
AATTATTCAAGAACAACAAAATAAGTAAAA (double strand) [MdABI3 promoter probe P1] | binds
TATAATTGTACCAACAACTTATTTATAGT (double strand) [MdABI4 promoter probe P1] | binds

Construct, isoform or probe ends are uncertain for at least one entry.
